Here are results for 3 sequences from US20120122179.

The chains behind the UniProt entries cited, without tags or fusion partners. Residues count along the entry.
UniProt P98139, 40-444: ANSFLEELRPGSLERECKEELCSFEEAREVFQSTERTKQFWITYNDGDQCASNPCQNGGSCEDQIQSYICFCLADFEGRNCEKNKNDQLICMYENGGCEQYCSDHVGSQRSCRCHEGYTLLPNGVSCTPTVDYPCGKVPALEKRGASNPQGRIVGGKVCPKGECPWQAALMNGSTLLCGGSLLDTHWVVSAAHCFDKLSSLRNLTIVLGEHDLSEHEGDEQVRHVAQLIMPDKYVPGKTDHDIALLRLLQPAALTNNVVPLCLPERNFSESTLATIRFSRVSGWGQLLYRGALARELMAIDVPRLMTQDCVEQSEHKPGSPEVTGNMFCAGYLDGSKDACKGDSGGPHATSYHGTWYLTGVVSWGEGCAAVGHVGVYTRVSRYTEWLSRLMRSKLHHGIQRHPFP
UniProt P00740, 47-461: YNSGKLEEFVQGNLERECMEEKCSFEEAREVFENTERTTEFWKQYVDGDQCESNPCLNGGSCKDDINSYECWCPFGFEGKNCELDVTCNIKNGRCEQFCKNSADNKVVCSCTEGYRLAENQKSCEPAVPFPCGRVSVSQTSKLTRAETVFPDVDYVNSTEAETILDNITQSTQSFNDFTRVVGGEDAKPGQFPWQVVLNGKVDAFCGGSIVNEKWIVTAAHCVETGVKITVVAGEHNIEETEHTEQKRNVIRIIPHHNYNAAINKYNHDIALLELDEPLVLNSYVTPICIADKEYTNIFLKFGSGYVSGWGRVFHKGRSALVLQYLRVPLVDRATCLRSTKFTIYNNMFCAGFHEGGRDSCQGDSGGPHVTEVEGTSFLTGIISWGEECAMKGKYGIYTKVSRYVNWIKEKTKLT

Experiment in all cases: pull-down
The target in data set [1] is coagulation factor VII, rabbit plasma (Oryctolagus cuniculus) (UniProt P98139). The following applies: 5' biotin; via PEG(C18)x4 spacer in SPR; affinity chromatography; 50 mM Tris, 10 mM CaCl2, 0.05 mM Mg salt, pH 7.5; 0.2% of FVII in EDTA eluate; protein in an extract; protein details: hydroxyapatite eluate enriched in rabbit FVII; single-stranded DNA.
Data set [2] deals with coagulation factor IX, plasma-derived (Homo sapiens) (UniProt P00740). The note with it: directly chemically coupled to gel, no spacer; affinity chromatography; 50 mM Tris, 10 mM CaCl2, pH 7.5; EDTA eluate 100% FIX vs 51% start; purified native protein; protein details: Betafact (LFB), about 51-60% purity; single-stranded DNA.
In data set [3] the target is coagulation factor IX, recombinant (Homo sapiens) (UniProt P00740). The following applies: directly chemically coupled to gel, no spacer; affinity chromatography; 50 mM Tris, 10 mM CaCl2, pH 7.5; EDTA elution; >26-fold purity gain; protein in an extract; single-stranded DNA.
For data set [4], the target named is T1, coagulation factor VII, plasma-derived (Homo sapiens) (UniProt P08709).
T1 sequence (looked up, limits assumed): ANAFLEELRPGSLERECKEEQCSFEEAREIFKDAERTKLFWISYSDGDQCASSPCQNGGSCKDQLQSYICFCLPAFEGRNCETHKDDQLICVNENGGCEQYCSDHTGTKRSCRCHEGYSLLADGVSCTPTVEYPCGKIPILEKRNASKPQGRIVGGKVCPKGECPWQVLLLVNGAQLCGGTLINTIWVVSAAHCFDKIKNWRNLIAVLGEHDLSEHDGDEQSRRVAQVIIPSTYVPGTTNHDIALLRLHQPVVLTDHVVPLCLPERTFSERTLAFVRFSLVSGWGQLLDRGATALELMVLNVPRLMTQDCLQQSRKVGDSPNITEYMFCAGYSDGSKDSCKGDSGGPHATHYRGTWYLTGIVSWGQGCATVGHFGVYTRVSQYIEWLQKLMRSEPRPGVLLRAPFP
The note with it: 5' biotin, no spacer; affinity chromatography; 50 mM Tris, 10 mM CaCl2, 0.05 mM MgCl2, pH 7.5; eluted by 10 mM EDTA; purified native protein; protein details: plasma FVII purified to 98%; single-stranded DNA; variant of Mapt-2 (Mapt2).

Construct, isoform or probe ends are uncertain for at least one entry. For some of these results: At least one result comes from cells or an extract, where the contact may be indirect. For some of these results: A negative result means that nothing was seen under these conditions. For some of these results: Tags and fusion partners may be left off the protein sequences shown.

Regarding “GGGAGATAGCCACGACCTATGCAGCCAGCCGCAGTGTAAGTGAATGCAGACATGGTCTAAGTGTCCAGGCTGTGCGAAAGC [Mapt-2 (Mapt2)]”, the binding result in data set [1] is on record as “no binding”. With “GGGAGATAGCCACGACCTCGCACATGACTTGAAGTTAAACGCGAATTACAAACCCAGCCCCCTCCAGGCTGTGCGAAAGC [Mapt-1]”, the binding result in data set [2] and in data set [3] was “binds” in each case. As for “CCGCACACCACGCGCATAATCCCGCGCACACGACTTGAAGTAGC [Mapt-2 core]”, in data set [4], the binding result was “binds”.
